PubChem BioAssay AID1053208, Peter MacCallum Cancer Centre – 2014
Screen: 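Synthetic lethal interactions between gene loss and doxorubicin in osteosarcoma cells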 (primary screen). Cells: mouse osteosarcoma cells, early-passage culture from an engineered mouse model of fibroblastic bone tumour. Reagent: siRNA pool against mouse genes, 40 nM. Timing: about 120 h (48 h before drug, then 72 h with drug). Conditions: doxorubicin 100 nM for 72 h, roughly 30-40% inhibitory dose. Measured: 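Luminescent ATP signal taken as viability with or without 100 nM doxorubicin for 72 h; mean of two wells set against non-targeting siRNA and turned into robust z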. Scale: viability z-score with doxorubicin and doxorubicin viability vs non-targeting: higher = more viable cells under doxorubicin; viability z-score without drug: higher = more viable cells with knock-down alone; z-score of drug to no-drug ratio: higher = less drug sensitisation by knock-down. Call rule: 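Called active if knock-down leaves viability unchanged without drug (z within -2 to 2) but lowers it with doxorubicin (z at or under -2)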.
In all, the deposit lists about 17,000 reagents; shown is an unselected part. 788 of all reagents (4.7%) were called active. 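Calls rest on z-score classes alone; an extra cut-off of viability at most 70% of control was not applied to them.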 A number with no mark means an inactive call. Reagents against one gene are numbered here.

The opening 4 records, ahead of the listing:
| gene | reagent no. | combined z-score class | viability z-score with doxorubicin | viability z-score without drug | z-score of drug to no-drug ratio | doxorubicin viability vs non-targeting |
| --- | --- | --- | --- | --- | --- | --- |
| Or7g29 (olfactory receptor family 7 subfamily G member 29) | 1 | no change with or without drug | -0.45 | 0.17 | -0.45 | 0.9 |
| Eri1 (exoribonuclease 1) | 1 | no change with or without drug | 1.57 | 0.51 | 1.35 | 1.08 |
| Arl11 (ADP-ribosylation factor-like 11) | 1 | no change with or without drug | -0.9 | -0.34 | -0.67 | 0.86 |
| Tbl1x (transducin beta like 1 X-linked) | 1 | no change with or without drug | 0 | 0.51 | -0.22 | 0.94 |

Results, repeating the preview:
| gene | reagent no. | combined z-score class | viability z-score with doxorubicin | viability z-score without drug | z-score of drug to no-drug ratio | doxorubicin viability vs non-targeting |
| --- | --- | --- | --- | --- | --- | --- |
| Or7g29 (olfactory receptor family 7 subfamily G member 29) | 1 | no change with or without drug | -0.45 | 0.17 | -0.45 | 0.9 |
| Eri1 (exoribonuclease 1) | 1 | no change with or without drug | 1.57 | 0.51 | 1.35 | 1.08 |
| Arl11 (ADP-ribosylation factor-like 11) | 1 | no change with or without drug | -0.9 | -0.34 | -0.67 | 0.86 |
| Tbl1x (transducin beta like 1 X-linked) | 1 | no change with or without drug | 0 | 0.51 | -0.22 | 0.94 |
| Tbata (thymus, brain and testes associated) | 1 | no change with or without drug | -1.12 | 0.67 | -1.46 | 0.84 |
| Bbox1 (gamma-butyrobetaine hydroxylase 1) | 1 | no change with or without drug | 1.8 | 0.51 | 1.57 | 1.1 |
| Or5b12 (olfactory receptor family 5 subfamily B member 12) | 1 | no change with or without drug | -1.69 | -0.51 | -1.35 | 0.79 |
| Dapp1 (dual adaptor for phosphotyrosine and 3-phosphoinositides 1) | 1 | no change with or without drug | -1.35 | 0.34 | -1.46 | 0.82 |
| Stx6 (syntaxin 6) | 1 | no change with or without drug | 0.34 | -0.84 | 1.12 | 0.97 |
| Myh3 (myosin, heavy polypeptide 3, skeletal muscle, embryonic) | 1 | no change with or without drug | -0.9 | -0.67 | -0.34 | 0.86 |
| Slc25a26 | 1 | no change with or without drug | -1.12 | 0.17 | -1.12 | 0.84 |
| Gde1 (glycerophosphodiester phosphodiesterase 1) | 1 | no change with or without drug | 0.9 | 0.84 | 0.45 | 1.02 |
| Gm10283 (predicted gene 10283) | 1 | no change with or without drug | -1.12 | -0.67 | -0.67 | 0.84 |
| Mme (membrane metallo endopeptidase) | 1 | no change with or without drug | 0.22 | 0.17 | 0.22 | 0.96 |
| Vsig8 (V-set and immunoglobulin domain containing 8) | 1 | no change with or without drug | -1.35 | 0.34 | -1.46 | 0.82 |
| Uncx (UNC homeobox) | 1 | no change with or without drug | -0.9 | -0.84 | -0.22 | 0.86 |
| Egln1 (egl-9 family hypoxia-inducible factor 1) | 1 | no change with or without drug | -1.01 | -0.17 | -0.9 | 0.85 |
| Klhl2 (kelch-like 2, Mayven) | 1 | no change with or without drug | -1.57 | 0.17 | -1.69 | 0.8 |
| Hsd3b6 | 1 | no change with or without drug | 0 | 0.51 | -0.22 | 0.94 |
| Or13ae2 (olfactory receptor family 13 subfamily AE member 2) | 1 | no change with or without drug | -0.67 | -1.01 | 0.11 | 0.88 |
| F830004M19Rik (RIKEN cDNA F830004M19 gene) | 1 | no change with or without drug | -0.45 | -0.84 | 0.22 | 0.9 |
| Nags (N-acetylglutamate synthase) | 1 | high cell count with doxorubicin only | 2.02 | 1.85 | 0.9 | 1.12 |
| Gatb (glutamyl-tRNA amidotransferase subunit B) | 1 | no change with or without drug | 1.24 | -0.34 | 1.69 | 1.05 |
| Alox8 (arachidonate 8-lipoxygenase) | 1 | no change with or without drug | 0.56 | 1.52 | -0.34 | 0.99 |
| Dpysl4 (dihydropyrimidinase-like 4) | 1 | no change with or without drug | -0.9 | 0.84 | -1.35 | 0.86 |
| Lrit2 | 1 | no change with or without drug | 1.35 | 0.84 | 0.9 | 1.06 |
| Fcho2 (FCH domain only 2) | 1 | high cell count without drug only | 1.35 | 2.19 | 0 | 1.06 |
| Asns (asparagine synthetase) | 1 | no change with or without drug | -0.22 | -0.84 | 0.45 | 0.92 |
| Riok2 (RIO kinase 2) | 1 | no change with or without drug | -0.22 | 0.84 | -0.67 | 0.92 |
| Hfm1 (helicase for meiosis 1) | 1 | no change with or without drug | -1.35 | -0.17 | -1.24 | 0.82 |
| Pxt1 (peroxisomal, testis specific 1) | 1 | no change with or without drug | 1.35 | 1.52 | 0.45 | 1.06 |
| Zfp395 (zinc finger protein 395) | 1 | no change with or without drug | 0.67 | 0.84 | 0.22 | 1 |
| Chchd2l2 | 1 | no change with or without drug | -0.22 | 1.01 | -0.79 | 0.92 |
| Idh3b (isocitrate dehydrogenase 3 (NAD+) beta) | 1 | low cell count with doxorubicin only (active) | -2.25 | -0.17 | -2.14 | 0.74 |
| Arhgap17 (Rho GTPase activating protein 17) | 1 | no change with or without drug | -1.57 | -0.17 | -1.46 | 0.8 |
| Rps13 (ribosomal protein S13) | 1 | low cell count with and without drug | -7.53 | -7.93 | -4.72 | 0.27 |
| Sox5 (SRY (sex determining region Y)-box 5) | 1 | no change with or without drug | 0.34 | 0.84 | -0.11 | 0.97 |
| Hoxa5 (homeobox A5) | 1 | no change with or without drug | 1.24 | 0.51 | 1.01 | 1.05 |
| Them5 (thioesterase superfamily member 5) | 1 | no change with or without drug | 1.12 | -1.18 | 2.25 | 1.04 |
| Susd3 (sushi domain containing 3) | 1 | no change with or without drug | -1.8 | 0.17 | -1.91 | 0.78 |
| Tnfsf15 (tumor necrosis factor (ligand) superfamily, member 15) | 1 | no change with or without drug | 0.22 | 0.17 | 0.22 | 0.96 |
| Tmem214 (transmembrane protein 214) | 1 | no change with or without drug | -0.45 | 0.51 | -0.67 | 0.9 |
| Samd14 (sterile alpha motif domain containing 14) | 1 | no change with or without drug | 0 | -0.84 | 0.67 | 0.94 |
| Fam3b (FAM3 metabolism regulating signaling molecule B) | 1 | no change with or without drug | 1.46 | 0.34 | 1.35 | 1.07 |
| Psmd6 (proteasome (prosome, macropain) 26S subunit, non-ATPase, 6) | 1 | low cell count with and without drug | -7.98 | -7.93 | -5.62 | 0.23 |
| Vmn2r129 (vomeronasal 2, receptor 129) | 1 | low cell count with doxorubicin only (active) | -2.47 | 0.34 | -2.7 | 0.72 |
| Vmn2r129 (vomeronasal 2, receptor 129) | 2 | high cell count without drug only | 1.91 | 3.04 | 0 | 1.11 |
| Atp13a4 (ATPase type 13A4) | 1 | no change with or without drug | -1.69 | -1.18 | -0.9 | 0.79 |
| Or1ad1 (olfactory receptor family 1 subfamily AD member 1) | 1 | no change with or without drug | 0 | 1.85 | -1.01 | 0.94 |
| Or5b102 (olfactory receptor family 5 subfamily B member 102) | 1 | no change with or without drug | -0.22 | 0.84 | -0.67 | 0.92 |
| Nthl1 (nth (endonuclease III)-like 1 (E.coli)) | 1 | no change with or without drug | -0.79 | -1.52 | 0.34 | 0.87 |
| Dcaf8 (DDB1 and CUL4 associated factor 8) | 1 | no change with or without drug | -1.57 | -1.01 | -0.9 | 0.8 |
| Cyp2d22 (cytochrome P450, family 2, subfamily d, polypeptide 22) | 1 | no change with or without drug | 0.45 | 1.18 | -0.22 | 0.98 |
| Rgs9 (regulator of G-protein signaling 9) | 1 | no change with or without drug | 0 | -0.84 | 0.67 | 0.94 |
| Pramel27 (PRAME like 27) | 1 | no change with or without drug | -1.91 | 1.18 | -2.59 | 0.77 |
| Pepf (pepsinogen F) | 1 | no change with or without drug | -1.24 | -0.51 | -0.9 | 0.83 |
| Atp9b (ATPase, class II, type 9B) | 1 | no change with or without drug | 0 | -0.84 | 0.67 | 0.94 |
| Dcaf12 (DDB1 and CUL4 associated factor 12) | 1 | no change with or without drug | 0.45 | 0.51 | 0.22 | 0.98 |
| Cacna1a | 1 | no change with or without drug | -1.57 | -0.51 | -1.24 | 0.8 |
| Nacc1 | 1 | no change with or without drug | 0.67 | 1.18 | 0 | 1 |
| Snx10 (sorting nexin 10) | 1 | no change with or without drug | -1.69 | -0.51 | -1.35 | 0.79 |
| Or10n1 (olfactory receptor family 10 subfamily N member 1) | 1 | no change with or without drug | 1.12 | 0.51 | 0.9 | 1.04 |
| Hs1bp3 (HCLS1 binding protein 3) | 1 | no change with or without drug | -0.22 | 1.69 | -1.12 | 0.92 |
